In test [1] the target is MqsR (his-tagged), co-expressed with full-length MqsA (E. coli) (UniProt Q46865). The experiment in a line: co-purification by the his-tag; MqsR his-tagged, MqsA-F untagged, co-expressed.
In test [2] the target is MqsR, his6-tag cleaved, co-expressed with MqsA-N (E. coli) (UniProt Q46865). As to the kind of experiment: crystal structure; MqsR:MqsA-N complex, 2.0 Å, MAD; sitting drop at 4°C, 0.1 M Bis-Tris pH 5.5, 25% PEG3350; two complexes in the asymmetric unit; both purified.

The chains behind the UniProt entries cited, without tags or fusion partners. Where a name states a change or a piece, a line headed by the entry shows the natural chain unless it says otherwise.
UniProt Q46865: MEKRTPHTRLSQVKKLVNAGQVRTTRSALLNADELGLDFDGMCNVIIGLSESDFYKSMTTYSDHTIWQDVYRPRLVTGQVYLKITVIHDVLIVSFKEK
UniProt Q46864: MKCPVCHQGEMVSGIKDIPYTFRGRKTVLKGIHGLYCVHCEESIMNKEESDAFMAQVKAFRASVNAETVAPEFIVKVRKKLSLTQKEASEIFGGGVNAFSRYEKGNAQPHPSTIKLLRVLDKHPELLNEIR

These are yes or no findings as the source states them, for the method shown. Some results given as binding are weak or reduced against the parent protein; the word gives no strength.

Consider “Full-length MqsA (MqsA-F), untagged, co-expressed with MqsR (from UniProt Q46864 1-131)”, for which, in test [1], the binding entry is recorded as “binds”.

Consider “MqsA N-terminal domain (MqsA-N), untagged, co-expressed with MqsR (from UniProt Q46864 1-76) (domain or fragment)”, for which the binding entry in test [2] is given as “binds”.

The record behind these values is PMC2791442.
